Measured values reported in the supplement of paper PMC12889115.
Some of the results follow. These are raw signals, not scaled to a control.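 Primary screen: polymyxin B was added at a level permeabilizing Salmonella outer membranes while sparing inner membranes. DMSO wells, both with and without polymyxin B, established maximum growth. Plate-to-plate variation meant each plate was ranked on its own, and the lowest-OD600 compounds were selected as hits.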

System: Salmonella enterica serovar Typhimurium SL1344
Test: bacterial growth OD600 after 18 h with compound and polymyxin B; higher = more bacterial growth (less inhibition)
Settings: 50 µM, Mueller-Hinton broth

SMILES | bacterial growth OD600 (polymyxin B 1 µg/mL) | bacterial growth OD600 (polymyxin B 0.75 µg/mL)
CCn1cc(CN2CCCC(CNC(=O)COc3ccccc3OC)C2)c(C)n1 (centres undefined) | 0.976 | 
Cc1ccc(CN2CC[C@@H](N3CCC(O)CC3)[C@H](O)C2)cc1C | 0.937 | 
COc1cc(CN2CCCC(CO)(Cc3ccc(F)cc3)C2)ccc1O (centres undefined) |  | 0.871
COCCCN1C(=O)CC(CC(=O)N(C)Cc2ccccn2)(c2ccccc2Cl)C1=O (centres undefined) |  | 0.82
CCCc1cc(C(=O)NCC2Cc3cc(-c4ccnc(SC)n4)cc(Cl)c3O2)no1 (centres undefined) |  | 0.507
CCC(=O)C1CCCN(C(=O)C2CCN(c3nc(C)c4ccc(S(C)(=O)=O)cc4n3)CC2)C1 (centres undefined) |  | 0.914
CCOc1ccc(C2c3[nH]c4ccccc4c3CCN2C(=O)C2CCC2)cc1 (centres undefined) |  | 0.323
COc1ccc(C(=O)N2CCC(C3CCN(Cc4cccnc4)CC3)C2)o1 (centres undefined) |  | 0.811
O=C(Nc1ccnn1C1CCN(Cc2nc3ccccc3s2)CC1)C1CC1 | 0.972 | 
CCOC(=O)N1CCN(Cc2ccc3c(c2)CN(C(=O)CCc2c[nH]c4ccccc24)CCO3)CC1 |  | 0.797
Cc1ccc(OCc2cc(C(=O)N3CCC(C(=O)c4ccccc4)CC3)no2)cn1 | 0.918 | 
Cc1cc(CNCC2(O)CCCN(Cc3ccccc3F)C2=O)[nH]n1 (centres undefined) | 1.01 | 
COc1ccc2cc(-c3n[nH]cc3CN(Cc3nccn3C)C(C)C)ccc2c1 | 0.833 | 
CO[C@H]1[C@H](NC(=O)c2ccsc2)c2ccccc2C12CCN(Cc1cccc(OCCO)c1)CC2 |  | 0.749
Cc1ccccc1N1CCN(C2CCCN(Cc3ccc(O)cc3)C2)CC1 (centres undefined) | 0.889 | 
C=CCn1cc(CN2C[C@H]3OC(=O)N(CCc4ccc(F)cc4)[C@H]3C2)c(C)n1 |  | 0.852
CCOC(=O)c1csc(CCNC(=O)C2CCN(c3nc(C)c4cc(C(C)C)ccc4n3)CC2)n1 |  | 0.676
CCOC(=O)C1(Cc2cccc(Cl)c2)CCCN(C(=O)CCC(F)(F)F)C1 (centres undefined) | 0.607 | 
CCN1CCN(C2(C(=O)NCCc3c[nH]cn3)Cc3ccccc3C2)CC1 |  | 0.786

Look-ups from above:
bacterial growth OD600 (polymyxin B 0.75 µg/mL), COCCCN1C(=O)CC(CC(=O)N(C)Cc2ccccn2)(c2ccccc2Cl)C1=O (centres undefined) reads 0.82
bacterial growth OD600 (polymyxin B 0.75 µg/mL), C=CCn1cc(CN2C[C@H]3OC(=O)N(CCc4ccc(F)cc4)[C@H]3C2)c(C)n1 reads 0.852
